Measured values as given in paper PMC8421267.
No constants are given. Whether binding was seen depends on the method and setting. Binding seen in cells or lysates may run through a third protein. Some entries that bind do so weakly or less than the wild type.

The chains behind the UniProt entries cited, without tags or fusion partners.
UniProt Q9H4A6: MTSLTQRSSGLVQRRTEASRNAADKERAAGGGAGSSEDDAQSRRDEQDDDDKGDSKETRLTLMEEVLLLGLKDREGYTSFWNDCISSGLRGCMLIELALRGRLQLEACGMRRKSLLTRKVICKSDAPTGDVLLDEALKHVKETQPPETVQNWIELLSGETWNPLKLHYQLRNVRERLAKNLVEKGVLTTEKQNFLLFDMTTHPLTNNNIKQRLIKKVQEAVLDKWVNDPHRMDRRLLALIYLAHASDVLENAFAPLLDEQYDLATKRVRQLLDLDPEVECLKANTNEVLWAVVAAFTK
UniProt Q9H4A5: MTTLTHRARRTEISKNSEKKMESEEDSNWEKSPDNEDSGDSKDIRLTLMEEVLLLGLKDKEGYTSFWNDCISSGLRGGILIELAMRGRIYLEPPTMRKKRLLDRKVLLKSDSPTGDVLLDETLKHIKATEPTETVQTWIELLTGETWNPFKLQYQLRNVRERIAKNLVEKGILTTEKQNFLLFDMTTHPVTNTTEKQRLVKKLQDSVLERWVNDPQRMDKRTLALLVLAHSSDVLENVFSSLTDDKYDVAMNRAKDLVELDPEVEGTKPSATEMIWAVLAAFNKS
UniProt P53618: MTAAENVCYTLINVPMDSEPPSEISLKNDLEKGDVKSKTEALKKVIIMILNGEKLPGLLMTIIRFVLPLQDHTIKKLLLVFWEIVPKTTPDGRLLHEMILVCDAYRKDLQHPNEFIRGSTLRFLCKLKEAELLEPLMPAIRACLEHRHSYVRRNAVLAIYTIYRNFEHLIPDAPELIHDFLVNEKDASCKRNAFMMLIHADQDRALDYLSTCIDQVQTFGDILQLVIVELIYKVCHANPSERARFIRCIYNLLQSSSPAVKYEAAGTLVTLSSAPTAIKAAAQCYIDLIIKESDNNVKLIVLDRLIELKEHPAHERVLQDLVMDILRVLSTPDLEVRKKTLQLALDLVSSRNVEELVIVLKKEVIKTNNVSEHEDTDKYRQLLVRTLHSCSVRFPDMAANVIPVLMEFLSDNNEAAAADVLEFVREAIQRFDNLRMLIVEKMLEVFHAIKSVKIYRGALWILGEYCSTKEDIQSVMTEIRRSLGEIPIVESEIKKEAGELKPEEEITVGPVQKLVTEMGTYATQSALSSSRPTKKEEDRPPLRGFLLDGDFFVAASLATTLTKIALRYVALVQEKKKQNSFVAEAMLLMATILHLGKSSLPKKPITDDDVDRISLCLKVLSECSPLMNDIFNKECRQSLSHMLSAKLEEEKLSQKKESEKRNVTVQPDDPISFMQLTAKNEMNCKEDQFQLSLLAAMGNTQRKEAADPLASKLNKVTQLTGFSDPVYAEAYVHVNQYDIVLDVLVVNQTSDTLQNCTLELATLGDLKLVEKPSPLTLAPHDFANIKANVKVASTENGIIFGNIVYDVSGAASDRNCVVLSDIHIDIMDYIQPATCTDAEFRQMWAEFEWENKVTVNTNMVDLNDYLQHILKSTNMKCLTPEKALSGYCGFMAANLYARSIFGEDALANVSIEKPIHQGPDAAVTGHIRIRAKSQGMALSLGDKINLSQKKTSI

How the values were obtained:
[1] = biological target: GST-GOLPH3 (UniProt Q9H4A6); test: pull-down; GST pull-downs from 293T cell lysate as for the mass spectrometry (GST-GOLPH3, GST-GOLPH3L or GST alone on glutathione beads), read by immunoblot; only the target purified
[2] = biological target: GST-GOLPH3L (UniProt Q9H4A5); test: as above

β-COP (from UniProt P53618 1-953)
binding [1]: binds
binding [2]: binds
